No constants are given. Whether binding was seen depends on the method and setting. Binding seen in cells or lysates may run through a third protein. These calls come from enrichment with a bait or labelling near it, and not all partners need be listed. Tags and fused reporters may be left off the sequences shown.
Legend:
[1] = biological target: T1, FLAG-HA-tagged ZMYND11, wild type, expressed in HEK293T cells (UniProt Q15326); assay: affinity purification with mass spectrometry; FLAG-tagged ZMYND11 constructs (WT, R600W, ΔMYND) or FH-GFP-SV40NLS expressed in HEK293T; anti-FLAG immunoprecipitation from nuclear lysates; quantitative tandem mass tag mass spectrometry (TMT-MS), intensities normalised to bait
T1 sequence: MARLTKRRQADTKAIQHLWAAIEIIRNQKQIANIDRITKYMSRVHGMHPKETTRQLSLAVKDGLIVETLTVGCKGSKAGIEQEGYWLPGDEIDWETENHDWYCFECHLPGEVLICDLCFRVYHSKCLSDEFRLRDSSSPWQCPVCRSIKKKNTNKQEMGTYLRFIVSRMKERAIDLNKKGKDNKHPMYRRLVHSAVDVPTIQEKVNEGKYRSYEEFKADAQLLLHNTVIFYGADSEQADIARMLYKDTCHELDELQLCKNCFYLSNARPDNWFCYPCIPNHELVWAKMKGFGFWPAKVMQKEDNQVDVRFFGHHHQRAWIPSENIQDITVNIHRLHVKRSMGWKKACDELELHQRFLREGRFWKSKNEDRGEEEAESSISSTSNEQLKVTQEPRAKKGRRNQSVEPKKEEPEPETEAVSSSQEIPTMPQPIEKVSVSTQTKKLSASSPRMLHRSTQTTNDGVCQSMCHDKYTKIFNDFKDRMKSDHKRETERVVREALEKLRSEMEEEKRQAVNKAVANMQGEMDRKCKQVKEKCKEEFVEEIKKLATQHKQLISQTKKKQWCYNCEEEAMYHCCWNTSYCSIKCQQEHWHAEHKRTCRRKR

By UniProt entry, the sequences of proteins in these tests, tags left out.
UniProt Q9UBL3: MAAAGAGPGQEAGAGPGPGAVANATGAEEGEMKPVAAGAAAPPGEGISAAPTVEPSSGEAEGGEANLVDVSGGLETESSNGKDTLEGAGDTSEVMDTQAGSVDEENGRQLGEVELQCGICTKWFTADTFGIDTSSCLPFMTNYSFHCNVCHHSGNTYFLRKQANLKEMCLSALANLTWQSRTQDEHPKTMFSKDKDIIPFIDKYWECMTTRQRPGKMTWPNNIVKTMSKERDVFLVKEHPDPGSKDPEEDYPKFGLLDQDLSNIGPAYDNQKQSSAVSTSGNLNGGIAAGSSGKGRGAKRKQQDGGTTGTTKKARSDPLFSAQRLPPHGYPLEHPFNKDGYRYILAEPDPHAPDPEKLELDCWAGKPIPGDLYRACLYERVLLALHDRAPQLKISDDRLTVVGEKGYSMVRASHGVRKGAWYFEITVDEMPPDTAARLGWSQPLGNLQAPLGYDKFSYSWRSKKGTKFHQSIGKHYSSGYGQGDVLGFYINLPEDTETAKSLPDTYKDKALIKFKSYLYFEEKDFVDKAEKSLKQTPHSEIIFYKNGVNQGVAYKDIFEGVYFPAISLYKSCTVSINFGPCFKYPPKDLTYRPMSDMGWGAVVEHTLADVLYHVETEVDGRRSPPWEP
UniProt P55200: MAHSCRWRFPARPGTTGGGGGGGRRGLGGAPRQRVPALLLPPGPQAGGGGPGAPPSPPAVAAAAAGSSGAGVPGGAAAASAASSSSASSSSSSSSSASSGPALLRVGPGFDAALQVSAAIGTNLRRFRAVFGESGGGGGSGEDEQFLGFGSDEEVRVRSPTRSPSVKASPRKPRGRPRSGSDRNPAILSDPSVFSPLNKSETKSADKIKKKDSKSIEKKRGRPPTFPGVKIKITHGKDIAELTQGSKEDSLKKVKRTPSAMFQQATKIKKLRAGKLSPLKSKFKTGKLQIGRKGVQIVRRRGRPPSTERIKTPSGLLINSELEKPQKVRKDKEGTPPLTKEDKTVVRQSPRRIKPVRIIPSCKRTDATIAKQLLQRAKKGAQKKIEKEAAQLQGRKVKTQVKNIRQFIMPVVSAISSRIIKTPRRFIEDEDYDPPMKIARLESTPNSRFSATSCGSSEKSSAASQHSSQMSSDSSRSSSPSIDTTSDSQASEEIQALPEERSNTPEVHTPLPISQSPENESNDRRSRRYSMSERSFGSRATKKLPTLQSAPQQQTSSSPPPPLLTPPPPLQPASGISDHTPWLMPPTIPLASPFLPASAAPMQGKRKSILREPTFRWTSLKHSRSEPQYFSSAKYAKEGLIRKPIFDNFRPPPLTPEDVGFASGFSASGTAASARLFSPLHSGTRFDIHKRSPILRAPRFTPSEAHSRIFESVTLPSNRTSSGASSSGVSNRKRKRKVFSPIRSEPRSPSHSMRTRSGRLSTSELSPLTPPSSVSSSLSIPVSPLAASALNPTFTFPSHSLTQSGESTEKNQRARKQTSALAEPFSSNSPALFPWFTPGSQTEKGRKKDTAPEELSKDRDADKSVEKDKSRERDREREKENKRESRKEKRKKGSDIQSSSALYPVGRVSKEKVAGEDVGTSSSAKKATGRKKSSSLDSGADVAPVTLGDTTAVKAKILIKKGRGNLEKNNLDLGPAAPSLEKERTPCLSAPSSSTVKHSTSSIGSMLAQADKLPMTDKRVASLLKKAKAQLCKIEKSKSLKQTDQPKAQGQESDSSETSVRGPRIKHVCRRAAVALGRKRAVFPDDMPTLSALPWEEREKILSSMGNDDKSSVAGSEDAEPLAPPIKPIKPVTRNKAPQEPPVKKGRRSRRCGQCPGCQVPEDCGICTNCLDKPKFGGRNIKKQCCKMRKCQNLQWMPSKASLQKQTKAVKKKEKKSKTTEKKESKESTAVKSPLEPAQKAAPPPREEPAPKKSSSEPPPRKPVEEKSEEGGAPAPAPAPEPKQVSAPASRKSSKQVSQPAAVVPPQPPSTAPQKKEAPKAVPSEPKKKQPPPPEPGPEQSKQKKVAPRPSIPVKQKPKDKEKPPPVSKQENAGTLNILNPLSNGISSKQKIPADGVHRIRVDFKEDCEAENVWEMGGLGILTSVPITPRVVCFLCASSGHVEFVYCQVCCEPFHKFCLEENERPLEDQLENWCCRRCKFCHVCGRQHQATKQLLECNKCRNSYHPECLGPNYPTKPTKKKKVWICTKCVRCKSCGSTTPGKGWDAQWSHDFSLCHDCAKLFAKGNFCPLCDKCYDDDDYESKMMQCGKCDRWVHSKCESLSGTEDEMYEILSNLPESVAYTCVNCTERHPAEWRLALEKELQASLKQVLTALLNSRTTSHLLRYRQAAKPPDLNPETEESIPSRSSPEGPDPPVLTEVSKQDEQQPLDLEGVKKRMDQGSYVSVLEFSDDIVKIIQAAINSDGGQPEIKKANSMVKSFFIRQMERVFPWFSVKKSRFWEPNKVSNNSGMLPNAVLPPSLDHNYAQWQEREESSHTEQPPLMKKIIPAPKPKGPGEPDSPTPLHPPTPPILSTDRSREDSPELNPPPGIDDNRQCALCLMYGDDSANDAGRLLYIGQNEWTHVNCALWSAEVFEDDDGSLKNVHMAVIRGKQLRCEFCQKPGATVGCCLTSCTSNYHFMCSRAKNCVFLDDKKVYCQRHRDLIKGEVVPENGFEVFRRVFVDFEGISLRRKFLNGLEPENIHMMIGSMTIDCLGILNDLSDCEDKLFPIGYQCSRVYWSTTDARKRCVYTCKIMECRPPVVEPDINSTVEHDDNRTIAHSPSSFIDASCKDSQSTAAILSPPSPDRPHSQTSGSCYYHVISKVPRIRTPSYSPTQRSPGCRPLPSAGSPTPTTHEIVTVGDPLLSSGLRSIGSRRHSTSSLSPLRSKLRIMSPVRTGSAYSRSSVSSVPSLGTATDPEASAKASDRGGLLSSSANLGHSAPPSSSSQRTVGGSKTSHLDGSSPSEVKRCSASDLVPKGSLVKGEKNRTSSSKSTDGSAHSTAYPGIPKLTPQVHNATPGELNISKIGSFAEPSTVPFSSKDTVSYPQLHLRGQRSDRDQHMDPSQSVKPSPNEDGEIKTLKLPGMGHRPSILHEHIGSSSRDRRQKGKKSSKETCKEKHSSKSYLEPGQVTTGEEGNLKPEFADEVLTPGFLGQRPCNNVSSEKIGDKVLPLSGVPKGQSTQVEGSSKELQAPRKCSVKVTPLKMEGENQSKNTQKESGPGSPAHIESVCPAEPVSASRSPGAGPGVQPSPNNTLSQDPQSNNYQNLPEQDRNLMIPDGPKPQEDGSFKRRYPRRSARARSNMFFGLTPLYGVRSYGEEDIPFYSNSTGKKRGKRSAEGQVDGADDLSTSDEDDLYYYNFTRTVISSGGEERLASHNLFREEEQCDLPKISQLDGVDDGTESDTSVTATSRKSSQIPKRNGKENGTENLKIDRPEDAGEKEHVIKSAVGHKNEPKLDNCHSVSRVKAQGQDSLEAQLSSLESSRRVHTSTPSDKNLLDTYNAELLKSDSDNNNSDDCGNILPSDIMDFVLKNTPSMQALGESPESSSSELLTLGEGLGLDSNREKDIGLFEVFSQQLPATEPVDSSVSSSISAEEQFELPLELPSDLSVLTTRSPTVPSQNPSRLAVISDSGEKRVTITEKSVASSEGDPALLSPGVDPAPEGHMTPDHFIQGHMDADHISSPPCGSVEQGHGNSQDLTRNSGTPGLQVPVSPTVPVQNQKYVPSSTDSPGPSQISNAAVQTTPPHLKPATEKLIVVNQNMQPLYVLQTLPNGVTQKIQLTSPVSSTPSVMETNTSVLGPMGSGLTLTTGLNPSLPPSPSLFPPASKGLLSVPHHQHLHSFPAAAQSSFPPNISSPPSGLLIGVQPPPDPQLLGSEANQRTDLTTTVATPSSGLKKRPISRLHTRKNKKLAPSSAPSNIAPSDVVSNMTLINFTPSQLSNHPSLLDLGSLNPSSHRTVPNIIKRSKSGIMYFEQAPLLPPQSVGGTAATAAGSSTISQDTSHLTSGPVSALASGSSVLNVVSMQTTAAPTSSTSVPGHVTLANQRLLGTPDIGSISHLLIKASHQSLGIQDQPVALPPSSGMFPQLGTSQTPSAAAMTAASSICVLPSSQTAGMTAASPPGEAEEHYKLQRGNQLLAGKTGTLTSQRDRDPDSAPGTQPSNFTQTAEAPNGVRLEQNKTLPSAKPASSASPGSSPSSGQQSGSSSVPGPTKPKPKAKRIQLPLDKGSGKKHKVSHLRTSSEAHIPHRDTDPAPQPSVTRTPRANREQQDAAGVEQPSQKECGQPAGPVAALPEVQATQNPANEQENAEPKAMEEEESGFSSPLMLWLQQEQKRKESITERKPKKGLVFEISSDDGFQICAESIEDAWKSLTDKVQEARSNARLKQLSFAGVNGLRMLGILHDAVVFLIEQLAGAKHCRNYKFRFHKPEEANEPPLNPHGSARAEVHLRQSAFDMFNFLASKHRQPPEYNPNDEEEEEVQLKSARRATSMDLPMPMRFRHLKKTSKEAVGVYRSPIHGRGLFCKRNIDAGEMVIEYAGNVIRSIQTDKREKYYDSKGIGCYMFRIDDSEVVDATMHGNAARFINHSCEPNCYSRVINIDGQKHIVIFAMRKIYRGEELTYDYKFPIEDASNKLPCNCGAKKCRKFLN
UniProt Q15291: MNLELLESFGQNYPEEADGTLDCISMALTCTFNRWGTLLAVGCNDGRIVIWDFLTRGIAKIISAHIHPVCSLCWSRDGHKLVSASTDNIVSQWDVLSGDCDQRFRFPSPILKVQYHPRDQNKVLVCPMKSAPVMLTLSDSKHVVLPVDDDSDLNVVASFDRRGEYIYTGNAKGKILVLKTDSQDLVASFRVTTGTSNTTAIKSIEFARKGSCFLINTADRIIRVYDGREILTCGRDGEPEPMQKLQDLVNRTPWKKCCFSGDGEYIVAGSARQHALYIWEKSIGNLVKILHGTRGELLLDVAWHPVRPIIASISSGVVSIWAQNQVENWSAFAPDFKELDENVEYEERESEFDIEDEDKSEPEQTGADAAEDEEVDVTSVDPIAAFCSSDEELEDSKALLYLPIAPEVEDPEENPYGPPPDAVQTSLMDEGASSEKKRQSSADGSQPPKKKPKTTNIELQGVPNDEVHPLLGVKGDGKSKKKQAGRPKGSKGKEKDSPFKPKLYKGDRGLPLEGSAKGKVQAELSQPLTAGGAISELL

[2] = biological target: T2, FLAG-HA-tagged ZMYND11 (endogenous, Zmynd11-FH knock-in mouse) (mouse (endogenous in brain tissue)) (UniProt Q8R5C8); assay: affinity purification with mass spectrometry; anti-FLAG (anti-DYKDDDK magnetic agarose) immunoprecipitation of endogenous FLAG-HA-ZMYND11 from nuclear lysates (420 mM NaCl extract plus MNase-digested chromatin, diluted to 150 mM NaCl) of Zmynd11-FH whole brain; washes NE1 + 250 mM NaCl; elution with 3XFLAG peptide; LC/MS-MS; wild-type littermates as control
T2 sequence: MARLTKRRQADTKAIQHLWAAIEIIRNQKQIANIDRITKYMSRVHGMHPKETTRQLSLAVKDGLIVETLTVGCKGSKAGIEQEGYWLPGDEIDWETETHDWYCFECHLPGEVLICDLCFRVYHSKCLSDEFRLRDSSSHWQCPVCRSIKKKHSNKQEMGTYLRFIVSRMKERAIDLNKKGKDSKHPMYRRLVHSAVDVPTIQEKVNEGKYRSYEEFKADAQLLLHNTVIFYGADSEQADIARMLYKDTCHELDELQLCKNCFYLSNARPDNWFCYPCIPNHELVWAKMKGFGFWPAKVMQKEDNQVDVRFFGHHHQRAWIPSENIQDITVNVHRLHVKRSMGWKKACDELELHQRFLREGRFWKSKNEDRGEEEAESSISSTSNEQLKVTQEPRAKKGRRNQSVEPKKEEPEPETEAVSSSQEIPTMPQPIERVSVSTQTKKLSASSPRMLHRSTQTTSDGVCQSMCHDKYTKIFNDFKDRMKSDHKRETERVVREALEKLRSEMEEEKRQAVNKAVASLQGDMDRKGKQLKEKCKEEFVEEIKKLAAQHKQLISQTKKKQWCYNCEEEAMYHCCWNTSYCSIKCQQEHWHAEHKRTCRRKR

Substance	binding [1]	binding [2]
ASH2L, endogenous in HEK293T cells (from UniProt Q9UBL3 1-628)	binds	–
KMT2A (MLL1), endogenous in HEK293T cells (from UniProt Q03164 1-3969)	binds	–
KMT2A (MLL1), mouse brain (from UniProt P55200 1-3966)	–	binds

Results, then the substance that gave them:

binding [1]	binding [2]	Substance
binds	–	NSD1, endogenous in HEK293T cells (from UniProt Q96L73 1-2696)
binds	–	RBBP5, endogenous in HEK293T cells (from UniProt Q15291 1-538)
–	binds	NSD1, mouse brain (from UniProt O88491 1-2588)

— publication doi:10.1101/2025.10.31.685692
